Measurements reported in the supplement of paper PMC7666118.
The other results are listed elsewhere or left out.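 Rule for the calls: active = dose-dependent thermal stabilisation significant by F-test of dose-response against flat model at 10% FDR; inactive = not significant.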

By UniProt entry, the sequences of proteins in these tests, tags left out. Where a name states a change or a piece, a line headed by the entry shows the natural chain unless it says otherwise.
UniProt P36551: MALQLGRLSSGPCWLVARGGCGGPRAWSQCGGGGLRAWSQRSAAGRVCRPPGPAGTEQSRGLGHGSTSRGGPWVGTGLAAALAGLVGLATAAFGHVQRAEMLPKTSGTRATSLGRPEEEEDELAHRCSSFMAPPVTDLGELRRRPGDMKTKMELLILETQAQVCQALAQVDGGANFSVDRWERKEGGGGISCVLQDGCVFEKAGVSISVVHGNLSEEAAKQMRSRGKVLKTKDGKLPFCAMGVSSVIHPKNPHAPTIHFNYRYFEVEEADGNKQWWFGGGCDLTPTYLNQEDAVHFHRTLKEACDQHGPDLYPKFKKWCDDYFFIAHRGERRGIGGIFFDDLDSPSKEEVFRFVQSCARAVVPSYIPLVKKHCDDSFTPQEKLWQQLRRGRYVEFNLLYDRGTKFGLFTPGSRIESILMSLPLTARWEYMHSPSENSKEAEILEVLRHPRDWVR
UniProt Q86VX2, whole entry: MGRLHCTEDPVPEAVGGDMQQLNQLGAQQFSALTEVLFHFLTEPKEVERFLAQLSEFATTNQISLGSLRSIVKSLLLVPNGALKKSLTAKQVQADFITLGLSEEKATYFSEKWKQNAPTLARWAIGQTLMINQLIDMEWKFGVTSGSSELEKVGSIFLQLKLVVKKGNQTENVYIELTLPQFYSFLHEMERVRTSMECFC
UniProt Q9BY43: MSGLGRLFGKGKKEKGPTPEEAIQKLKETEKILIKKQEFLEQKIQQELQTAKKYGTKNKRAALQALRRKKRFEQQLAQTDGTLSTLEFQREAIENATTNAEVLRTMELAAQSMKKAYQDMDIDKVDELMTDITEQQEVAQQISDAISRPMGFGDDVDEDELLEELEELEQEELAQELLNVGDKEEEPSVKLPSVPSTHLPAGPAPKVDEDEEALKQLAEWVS
UniProt Q8IWY9: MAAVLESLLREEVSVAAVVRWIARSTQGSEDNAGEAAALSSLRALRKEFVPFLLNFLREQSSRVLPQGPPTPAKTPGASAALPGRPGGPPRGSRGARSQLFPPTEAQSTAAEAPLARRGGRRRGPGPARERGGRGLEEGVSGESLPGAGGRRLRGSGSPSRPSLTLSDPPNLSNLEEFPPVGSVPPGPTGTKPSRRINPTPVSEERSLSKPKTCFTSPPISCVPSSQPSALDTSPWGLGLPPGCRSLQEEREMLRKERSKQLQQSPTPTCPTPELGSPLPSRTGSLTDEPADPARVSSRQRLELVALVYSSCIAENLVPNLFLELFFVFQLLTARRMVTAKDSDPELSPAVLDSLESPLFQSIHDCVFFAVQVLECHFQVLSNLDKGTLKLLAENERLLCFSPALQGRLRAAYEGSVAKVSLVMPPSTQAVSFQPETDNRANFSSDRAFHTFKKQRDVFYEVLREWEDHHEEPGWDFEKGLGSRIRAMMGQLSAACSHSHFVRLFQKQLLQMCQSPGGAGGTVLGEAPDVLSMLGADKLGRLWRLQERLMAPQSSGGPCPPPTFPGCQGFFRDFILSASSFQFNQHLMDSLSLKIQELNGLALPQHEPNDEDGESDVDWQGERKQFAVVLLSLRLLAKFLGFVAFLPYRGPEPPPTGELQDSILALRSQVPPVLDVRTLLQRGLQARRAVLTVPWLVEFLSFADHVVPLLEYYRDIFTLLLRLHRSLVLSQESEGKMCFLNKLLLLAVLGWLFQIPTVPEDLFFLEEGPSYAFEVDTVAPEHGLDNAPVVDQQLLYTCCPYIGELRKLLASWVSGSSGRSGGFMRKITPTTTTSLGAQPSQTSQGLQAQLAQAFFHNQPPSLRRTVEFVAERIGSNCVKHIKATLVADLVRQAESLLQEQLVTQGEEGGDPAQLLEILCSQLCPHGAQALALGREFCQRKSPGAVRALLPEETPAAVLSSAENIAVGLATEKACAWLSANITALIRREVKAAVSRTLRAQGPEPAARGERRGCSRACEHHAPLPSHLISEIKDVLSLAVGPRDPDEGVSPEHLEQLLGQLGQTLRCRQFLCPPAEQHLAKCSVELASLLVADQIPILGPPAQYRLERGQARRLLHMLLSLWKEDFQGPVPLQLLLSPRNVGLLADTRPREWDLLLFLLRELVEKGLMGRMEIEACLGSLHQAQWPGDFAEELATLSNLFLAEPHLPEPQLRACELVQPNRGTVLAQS
UniProt Q9BV73: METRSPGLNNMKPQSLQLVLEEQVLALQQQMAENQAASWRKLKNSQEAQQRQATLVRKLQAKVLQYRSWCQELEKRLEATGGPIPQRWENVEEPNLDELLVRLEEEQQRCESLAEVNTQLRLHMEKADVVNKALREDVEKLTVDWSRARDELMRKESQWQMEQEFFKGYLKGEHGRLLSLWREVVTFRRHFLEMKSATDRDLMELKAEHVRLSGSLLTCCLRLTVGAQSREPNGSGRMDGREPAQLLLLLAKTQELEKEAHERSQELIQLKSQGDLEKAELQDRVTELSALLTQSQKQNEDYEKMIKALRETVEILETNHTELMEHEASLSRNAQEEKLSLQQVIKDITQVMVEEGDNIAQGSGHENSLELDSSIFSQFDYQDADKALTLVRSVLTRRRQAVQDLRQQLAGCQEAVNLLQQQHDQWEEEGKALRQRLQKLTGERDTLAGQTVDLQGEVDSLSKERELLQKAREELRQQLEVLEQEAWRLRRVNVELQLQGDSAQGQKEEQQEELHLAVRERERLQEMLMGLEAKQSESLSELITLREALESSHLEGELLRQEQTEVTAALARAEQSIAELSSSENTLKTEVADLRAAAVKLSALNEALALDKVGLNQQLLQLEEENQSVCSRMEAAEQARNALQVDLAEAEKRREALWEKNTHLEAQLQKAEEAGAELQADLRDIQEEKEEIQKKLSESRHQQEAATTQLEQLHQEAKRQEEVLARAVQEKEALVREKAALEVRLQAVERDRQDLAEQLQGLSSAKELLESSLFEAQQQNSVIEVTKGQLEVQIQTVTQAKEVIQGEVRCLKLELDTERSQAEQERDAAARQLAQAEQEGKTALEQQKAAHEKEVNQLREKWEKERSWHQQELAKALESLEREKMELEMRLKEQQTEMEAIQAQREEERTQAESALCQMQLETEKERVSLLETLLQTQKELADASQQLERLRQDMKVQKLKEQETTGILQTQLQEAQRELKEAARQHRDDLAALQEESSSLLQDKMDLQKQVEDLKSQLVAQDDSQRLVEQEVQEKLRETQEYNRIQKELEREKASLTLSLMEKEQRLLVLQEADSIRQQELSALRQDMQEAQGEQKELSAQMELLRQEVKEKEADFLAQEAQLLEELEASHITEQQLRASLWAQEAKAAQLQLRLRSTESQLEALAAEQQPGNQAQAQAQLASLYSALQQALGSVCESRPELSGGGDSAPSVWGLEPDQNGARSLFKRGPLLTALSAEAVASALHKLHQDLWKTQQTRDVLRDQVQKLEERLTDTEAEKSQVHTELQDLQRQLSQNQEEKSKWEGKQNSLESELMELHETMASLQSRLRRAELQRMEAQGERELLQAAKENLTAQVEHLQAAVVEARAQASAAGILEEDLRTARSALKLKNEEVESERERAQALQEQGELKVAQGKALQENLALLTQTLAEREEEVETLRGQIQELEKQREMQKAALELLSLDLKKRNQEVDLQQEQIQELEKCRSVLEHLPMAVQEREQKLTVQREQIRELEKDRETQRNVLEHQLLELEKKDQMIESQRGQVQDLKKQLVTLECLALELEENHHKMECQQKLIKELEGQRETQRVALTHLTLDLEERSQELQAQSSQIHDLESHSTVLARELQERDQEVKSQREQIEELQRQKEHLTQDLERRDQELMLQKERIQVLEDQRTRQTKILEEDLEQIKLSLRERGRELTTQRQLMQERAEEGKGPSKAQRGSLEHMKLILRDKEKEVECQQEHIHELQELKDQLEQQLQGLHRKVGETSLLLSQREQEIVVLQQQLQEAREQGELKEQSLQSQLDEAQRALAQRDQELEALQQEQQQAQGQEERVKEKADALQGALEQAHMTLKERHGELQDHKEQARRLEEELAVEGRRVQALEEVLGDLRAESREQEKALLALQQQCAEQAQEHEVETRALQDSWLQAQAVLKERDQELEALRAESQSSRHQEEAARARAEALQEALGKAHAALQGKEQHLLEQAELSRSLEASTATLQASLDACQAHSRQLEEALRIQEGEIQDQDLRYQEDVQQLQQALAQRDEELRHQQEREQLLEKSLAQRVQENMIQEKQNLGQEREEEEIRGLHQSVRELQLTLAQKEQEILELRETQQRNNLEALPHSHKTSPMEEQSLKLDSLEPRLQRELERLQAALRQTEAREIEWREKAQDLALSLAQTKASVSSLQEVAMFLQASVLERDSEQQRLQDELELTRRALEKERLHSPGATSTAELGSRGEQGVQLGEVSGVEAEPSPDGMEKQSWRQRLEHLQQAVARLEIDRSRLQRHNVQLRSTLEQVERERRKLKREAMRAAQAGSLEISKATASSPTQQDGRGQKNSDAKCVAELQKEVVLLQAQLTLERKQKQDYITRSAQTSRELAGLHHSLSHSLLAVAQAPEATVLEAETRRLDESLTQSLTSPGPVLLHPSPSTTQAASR
UniProt Q8NFW8: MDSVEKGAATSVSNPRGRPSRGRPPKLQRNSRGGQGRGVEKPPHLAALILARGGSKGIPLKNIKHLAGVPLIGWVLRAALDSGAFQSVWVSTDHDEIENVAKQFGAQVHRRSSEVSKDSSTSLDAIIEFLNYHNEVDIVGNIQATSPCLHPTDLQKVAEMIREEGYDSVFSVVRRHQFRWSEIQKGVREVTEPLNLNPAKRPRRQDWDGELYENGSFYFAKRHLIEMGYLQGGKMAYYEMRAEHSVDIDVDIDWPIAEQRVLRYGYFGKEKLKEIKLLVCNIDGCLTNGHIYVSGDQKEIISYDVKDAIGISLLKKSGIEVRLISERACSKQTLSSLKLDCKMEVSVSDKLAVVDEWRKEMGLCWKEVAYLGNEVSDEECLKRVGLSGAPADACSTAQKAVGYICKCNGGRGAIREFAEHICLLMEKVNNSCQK
UniProt P35790, whole entry, looked up: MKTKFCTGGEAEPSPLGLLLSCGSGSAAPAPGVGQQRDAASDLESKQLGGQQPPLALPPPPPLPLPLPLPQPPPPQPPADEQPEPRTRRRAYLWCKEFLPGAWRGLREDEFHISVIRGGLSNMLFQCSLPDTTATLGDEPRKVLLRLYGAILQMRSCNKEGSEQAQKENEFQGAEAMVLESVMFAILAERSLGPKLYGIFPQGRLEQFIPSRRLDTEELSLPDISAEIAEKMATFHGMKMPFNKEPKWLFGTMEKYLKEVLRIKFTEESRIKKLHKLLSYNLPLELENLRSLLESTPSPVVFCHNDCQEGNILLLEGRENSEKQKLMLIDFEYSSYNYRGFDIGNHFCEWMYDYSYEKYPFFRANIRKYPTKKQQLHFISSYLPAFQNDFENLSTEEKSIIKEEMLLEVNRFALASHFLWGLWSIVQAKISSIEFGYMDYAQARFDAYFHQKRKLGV
UniProt Q92600, whole entry: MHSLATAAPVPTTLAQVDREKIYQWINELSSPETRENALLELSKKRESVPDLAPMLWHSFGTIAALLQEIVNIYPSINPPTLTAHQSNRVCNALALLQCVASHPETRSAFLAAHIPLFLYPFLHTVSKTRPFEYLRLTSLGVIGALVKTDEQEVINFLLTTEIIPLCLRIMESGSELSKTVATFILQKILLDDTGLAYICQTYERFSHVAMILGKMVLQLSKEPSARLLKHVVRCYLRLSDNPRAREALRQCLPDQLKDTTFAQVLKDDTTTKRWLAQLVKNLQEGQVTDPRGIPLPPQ

What follows are targets tested with Nc1nc2c(ncn2[C@@H]2O[C@H](COP(=O)(O)OP(=O)(O)OP(=O)(O)O)[C@@H](O)[C@H]2O)c(=O)[nH]1 (assay: dose-dependent thermal stabilisation call (2D-TPP, DLPTP, 10% FDR) (binary (1 = stabilised)); higher = stabilised by the compound). Conditions: system: Jurkat gel-filtered lysate; concentration range 1-500 µM.
With CPOX (UniProt P36551) the “dose-dependent thermal stabilisation call” value was inactive: 0. For COMMD7 (UniProt Q86VX2), the “dose-dependent thermal stabilisation call” value was inactive: 0. CHMP4A (UniProt Q9BY43) was tested, and the “dose-dependent thermal stabilisation call” value was inactive: 0. CDAN1 (UniProt Q8IWY9) was tested, and the “dose-dependent thermal stabilisation call” value was inactive: 0. CDK2 (UniProt P24941) was tested, and the “dose-dependent thermal stabilisation call” value was inactive: 0. In the case of CEP250 (UniProt Q9BV73), the “dose-dependent thermal stabilisation call” value is reported as inactive: 0. For CMAS (UniProt Q8NFW8), the “dose-dependent thermal stabilisation call” value was active: 1. For CHKA (UniProt P35790), the “dose-dependent thermal stabilisation call” value was active: 1. For CNOT9 (UniProt Q92600), the “dose-dependent thermal stabilisation call” value was inactive: 0.
